Structures can show the parent of a compound that is named as a salt. Where two headings read alike, the source gives them in different places. Screen size: about 3,300 compounds; about 95 (3%) showed an effect of 50% or more. This is one part of the list. Peptide text beside a SMILES is read from it.
Tested on: HCoV-229E
Design: species or system Huh-7; HTS, protection from HCoV-229E induced cell death, luminescent cell viability (CellCounting-Lite 2.0), inhibition rate
Conditions: 24 h post infection, 1 h compound pre-incubation, 10 µM, inhibitor

| Compound | 229E Inhibition rate [%] | 229E Inhibition rate (229E Inhibition rate, 24 h) [%] |
| --- | --- | --- |
| C=C1[C@@H]2CC[C@H]3[C@]4(C)C[C@H](O[C@@H]5O[C@H](CO)[C@@H](OS(=O)(=O)O)[C@H](OS(=O)(=O)O)[C@H]5OC(=O)CC(C)C)CC(C(=O)O)(C(=O)O)[C@H]4CC[C@]3(C2)[C@H]1O [Carboxyatractyloside (dipotassium)] | 3 |  |
| COC(=O)C1=CO[C@@H](C)[C@H]2CN3CC[C@]4(C(=O)Nc5ccccc54)[C@@H]3C[C@H]12 [Mitraphylline] | 5.5 |  |
| [C-]#[N+]C(=C\c1ccc(OC)cc1)/C(=C/c1ccc(OC)cc1)[N+]#[C-] [Xanthocillin X permethyl ether] | 4.6 |  |
| C[C@H](CCC(=O)NCCS(=O)(=O)O)[C@H]1CC[C@H]2[C@@H]3CC[C@@H]4C[C@H](O)CC[C@]4(C)[C@H]3C[C@H](O)[C@]12C [Taurodeoxycholate (sodium salt)] | 12.5 |  |
| O=C[C@H](O)[C@@H](O)[C@H](O)[C@H](O)CO[C@H]1O[C@H](CO[C@H]2O[C@H](CO)[C@H](O)[C@H](O)[C@H]2O)[C@H](O)[C@H](O)[C@H]1O [Manninotriose] | 13 |  |
| CC(=O)Oc1ccccc1 [Phenyl acetate] | 16.6 |  |
| CN(CC(=O)O)C(=N)N [Creatine] | 7.6 |  |
| CC(=O)OC(C)(C)CCC(=O)[C@](C)(O)[C@H]1[C@H](O)C[C@@]2(C)[C@@H]3CC=C4[C@@H](C[C@H](O)[C@@H](O)C4(C)C)[C@]3(C)C(=O)C[C@]12C [Cucurbitacin IIa] | 46.7 |  |
| Cn1cnc2c(ncn2[C@@H]2O[C@H](CO)[C@@H](O)[C@H]2O)c1=O [1-Methylinosine] | 4.7 |  |
| Cc1ncc(C[n+]2csc(CCOP(=O)(O)OP(=O)(O)O)c2C)c(N)n1 [Thiamine pyrophosphate] | 8.2 |  |
| CCOC(=O)/C=C/C(=O)OCC [Diethyl fumarate] | 7.4 |  |
| COc1ccc(C[C@H]2COC(=O)[C@]2(O)Cc2ccc(O[C@@H]3O[C@H](CO)[C@@H](O)[C@H](O)[C@H]3O)c(OC)c2)cc1OC [Tracheloside] | 10.6 |  |
| CCCCCCCCCC=O [Decyl aldehyde] | 5.4 |  |
| COc1ccc(/C=C/C(=O)/C=C(O)/C=C/c2ccc(OC)c(OC)c2)cc1OC [Dimethylcurcumin] | 5.2 |  |
| COn1cc(CC#N)c2ccccc21 [Caulilexin C] | 14.2 |  |
| O=c1oc2c(O)c(O)cc3c(=O)oc4c(O)c(O)cc1c4c23 [Ellagic acid] | 5.6 |  |
| O=c1ccc2c(O)cc(O)cc2o1 [5,7-Dihydroxycoumarin] | 12 |  |
| NC(=O)NCCC[C@H](N)C(=O)O [L-Citrulline] | 7.9 |  |
| CO[C@@H]1[C@@H](O[C@@H]2O[C@H](C)[C@@H](O[C@H]3C[C@@](C)(O)[C@@H](OC(=O)CC(C)C)[C@H](C)O3)[C@H](N(C)C)[C@H]2O)[C@@H](CC=O)C[C@@H](C)[C@@H](O)/C=C/C=C/C[C@@H](C)OC(=O)C[C@H]1OC(C)=O [Josamycin] | 25.8 |  |
| CC(C)=CCc1cc2c(=O)cc(-c3ccc(O)cc3)oc2cc1O [Licoflavone A] | 41.2 |  |

2 neighbouring records out of the list so far:

| Compound | 229E Inhibition rate [%] | 229E Inhibition rate (229E Inhibition rate, 24 h) [%] |
| --- | --- | --- |
| C[C@H](CCC(=O)NCCS(=O)(=O)O)[C@H]1CC[C@H]2[C@@H]3CC[C@@H]4C[C@H](O)CC[C@]4(C)[C@H]3C[C@H](O)[C@]12C [Taurodeoxycholate (sodium salt)] | 12.5 |  |
| O=C[C@H](O)[C@@H](O)[C@H](O)[C@H](O)CO[C@H]1O[C@H](CO[C@H]2O[C@H](CO)[C@H](O)[C@H](O)[C@H]2O)[C@H](O)[C@H](O)[C@H]1O [Manninotriose] | 13 |  |

(more compounds)

| Compound | 229E Inhibition rate [%] | 229E Inhibition rate (229E Inhibition rate, 24 h) [%] |
| --- | --- | --- |
| CSCC[C@H](NC(=O)[C@H](Cc1ccccc1)NC(=O)[C@H](Cc1cnc[nH]1)NC(=O)CNC(=O)[C@@H](NC(=O)[C@H](C)NC(=O)[C@H](Cc1c[nH]c2ccccc12)NC(=O)[C@H](CCC(N)=O)NC(=O)[C@@H]1CCC(=O)N1)C(C)C)C(N)=O [Litorin] | 9.7 |  |
| COc1ccc2nccc(C(=O)O)c2c1 [Quininic acid] | 33.4 |  |
| C/C1=C\C(=O)c2c(C)coc2C/C(C)=C/CC1 [Furanodienone] | 8.4 |  |
| C[C@]12CC[C@H]3[C@@H](CC[C@]4(O)C[C@@H](O)CC[C@]34C=O)[C@@]1(O)CC[C@@H]2C1=CC(=O)OC1 [Strophanthidin] | 42.5 |  |
| COc1cc([C@H]2OC[C@H]3[C@@H]2CO[C@H]3c2ccc(O)c(OC)c2)ccc1O [Pinoresinol] | 13.6 |  |
| CC(=O)c1ccc(O)c(O)c1 [3',4'-Dihydroxyacetophenone] | 12.4 |  |
| CC[C@H]1C[C@@H]2CN3CCc4c([nH]c5ccccc45)[C@](C(=O)OC)(C2)[C@H]13 [Coronaridine] | 41.8 |  |
| COC(=O)[C@@H]1[C@H]2C[C@H]3c4[nH]c5ccccc5c4CCN3C[C@@H]2CC[C@@H]1O [Yohimbine (Hydrochloride)] |  | 36 |
| COc1cc(O)c(C(=O)/C=C/c2ccc(O)cc2)c(OC)c1 [Flavokawain C] | 0 |  |
| COc1cccc(CCC(=O)O)c1 [3-(3-Methoxyphenyl)propionic acid] | 21.4 |  |
| COC(=O)C1=CO[C@@H](C)[C@H]2CN3CCc4c([nH]c5ccccc45)[C@@H]3C[C@H]12 [Ajmalicine] | 55.3 |  |
| OCc1ccccc1O[C@@H]1O[C@H](CO)[C@@H](O)[C@H](O)[C@H]1O [Salicin] | 0 |  |
| CN1[C@@H]2CC(O)C[C@H]1[C@@H]1O[C@@H]12 (stereo partly drawn) [Scopine] | 42 |  |
| C=C1CC[C@@H]2[C@](C)(CO)[C@H](O)CC[C@@]2(C)[C@@H]1C/C=C1/C(=O)OC[C@H]1O [Andrographolide] | 0 |  |
| CC(C)[C@H](NC(=O)[C@H](CC(=O)O)NC(=O)[C@H](CCCCN)NC(=O)[C@@H](N)CCCN=C(N)N)C(=O)N[C@@H](Cc1ccc(O)cc1)C(=O)O [Thymopentin] (H-RKDVY-OH) |  | 21.6 |
| O=C[C@H](O)[C@@H](O)[C@@H](O)[C@H](O)C(=O)O [D-Galacturonic acid (hydrate)] | 6.7 |  |
| CC1(C)CC[C@]2(C(=O)O[C@@H]3O[C@H](CO)[C@@H](O)[C@H](O)[C@H]3O)CC[C@]3(C)C(=CC[C@@H]4[C@@]5(C)CC[C@H](O[C@@H]6O[C@H](C(=O)O)[C@@H](O)[C@H](O)[C@H]6O[C@@H]6O[C@H](CO)[C@@H](O)[C@H](O)[C@H]6O)C(C)(C)[C@@H]5CC[C@]43C)[C@@H]2C1 [Ginsenoside Ro] | 14.3 |  |
| Oc1ccc([C@H]2Oc3cc(O)cc(O)c3C[C@H]2O)cc1 [(-)-Epiafzelechin] | 11.8 |  |
| COc1cc(-c2oc3cc(O)cc(O)c3c(=O)c2O)ccc1O [Isorhamnetin] | 7.4 |  |
| O=c1ccn([C@@H]2O[C@H](CO)[C@@H](O)[C@@H]2O)c(=O)[nH]1 [1-beta-D-Arabinofuranosyluracil] | 21.8 |  |

One compound at a time, from the list above.
O=C[C@H](O)[C@@H](O)[C@@H](O)[C@H](O)C(=O)O [D-Galacturonic acid (hydrate)] in the list: 229E Inhibition rate [%]: 6.7
CC[C@H]1C[C@@H]2CN3CCc4c([nH]c5ccccc45)[C@](C(=O)OC)(C2)[C@H]13 [Coronaridine] in the list: 229E Inhibition rate [%]: 41.8

(next part)

| Compound | 229E Inhibition rate [%] | 229E Inhibition rate (229E Inhibition rate, 24 h) [%] |
| --- | --- | --- |
| O=C(O[C@@H]1Cc2c(O)cc(O)cc2O[C@@H]1c1cc(O)c(=O)c2c(O)c(O)cc([C@H]3Oc4cc(O)cc(O)c4C[C@H]3OC(=O)c3cc(O)c(O)c(O)c3)c2c1)c1cc(O)c(O)c(O)c1 [Theaflavin 3,3'-digallate] | 9.8 |  |
| COc1cccc2c1C(=O)c1c(O)c3c(c(O)c1C2=O)C[C@@](O)(C(C)=O)C[C@@H]3O[C@H]1C[C@H](N)[C@H](O)[C@H](C)O1 [Daunorubicin (hydrochloride)] | 2.9 |  |
| Oc1cc(O)c2c(c1)O[C@H](c1ccc(O)c(O)c1)[C@H](O)[C@H]2c1c(O)cc(O)c2c1O[C@H](c1ccc(O)c(O)c1)[C@H](O)C2 [Procyanidin B2] | 13.1 |  |
| CC(C)=CCC/C(C)=C/C=O [Citral] | 47.4 |  |
| COC(=O)[C@H]1[C@H]2C[C@@H]3c4[nH]c5cc(OC)ccc5c4CCN3C[C@H]2C[C@@H](OC(=O)c2cc(OC)c(OC)c(OC)c2)[C@@H]1OC [Reserpine (hydrochloride)] |  | 6.8 |
| CC1(C)[C@@H](O)CC[C@]2(C)[C@H]3CC=C4[C@@H]5C[C@@]6(C)C[C@H](OC6=O)[C@]5(C)CC[C@@]4(C)[C@]3(C)CC[C@@H]12 [Wilforlide A] | 6.1 |  |
| COc1c2c(cc3oc(CO)cc(=O)c13)O[C@H](C(C)(C)O)C2 [Cimifugin] | 8.3 |  |
| NCC(O)CCC(N)C(=O)O (racemic) [DL-5-Hydroxylysine (hydrochloride)] | 12.9 |  |
| O=C(/C=C/c1ccc(O)cc1)c1ccc(O)cc1O [Isoliquiritigenin] | 0 |  |
| O=C(/C=C/c1ccc(O)c2oc(-c3ccc(O)c(O)c3)cc12)O[C@H](Cc1ccc(O)c(O)c1)C(=O)O [Salvianolic acid C] | 23.8 |  |
| COc1cc2ccc(=O)oc2cc1O[C@@H]1O[C@H](CO)[C@@H](O)[C@H](O)[C@H]1O [Scopolin] | 11.6 |  |
| OCc1c[nH]c2ccccc12 [Indole-3-carbinol] | 7.2 |  |
| N[C@@H](Cc1c[nH]c2ccccc12)C(=O)O [L-Tryptophan] | 23 |  |
| C[C@@H]1[C@H]2c3cc4c(cc3O[C@@]35OCOC3=CC(=O)[C@H](C[C@H]1C)[C@@H]25)OCO4 [Sauchinone] | 0 |  |
| CC(O)Cn1cnc2c1c(=O)n(C)c(=O)n2C (stereo not drawn) [Proxyphylline] | 10.5 |  |
| CCC(C(=O)O)C(=O)O [Ethylmalonic acid] | 44.3 |  |
| CCCCCCCC/C=C\CCCCCCCC(N)=O [Oleamide] | 41.1 |  |
| CC(=O)c1ccc(O)cc1O [2',4'-Dihydroxyacetophenone] | 48.3 |  |
| CC(C)(C)c1cc(O)cc(C(C)(C)C)c1 [3,5-Di-tert-butylphenol] | 12.6 |  |
| CC(=O)CCCC(C)CCCC(C)CCCC(C)C (stereo not drawn) [Hexahydrofarnesyl acetone] | 10.1 |  |

Source: publication PMC12431657, “Discovery and mechanistic insights of dibenzoylmethane as a broad spectrum inhibitor of coronavirus” (PLOS Pathogens, 2025)
